In patent US20130144068A1, “Methods for the Sterilization of Bendamustine” (Cephalon, Inc., priority 2010, published 2013):

Assay: Sterility testing per USP <71> of sterilized bendamustine HCl

Measured: Sterility USP <71> result

Cl.Cn1c(CCCC(=O)O)nc2cc(N(CCCl)CCCl)ccc21 [bendamustine HCl, Bendamustine hydrochloride]
No growth observed: after E-beam sterilization, about 30 kGy | after dry heat sterilization (140° C. for 180 minutes or 150° C. for 150 minutes) | after gamma irradiation, 29.3 kGy to about 32.3 kGy
